Experimental data: PubChem BioAssay AID686938 (Drosophila RNAi Screening Center, 2013)
Assay: 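Knock-downs reducing store-operated calcium influx in Drosophila cells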 (primary screen). Cells: Drosophila S2R+ cells. Knock-down reagent: long dsRNA against Drosophila genes, about 0.25 µg dsRNA per well, roughly 10,000 cells. Duration: 5 days of knock-down before the calcium assay. Treatment: thapsigargin (SERCA pump blocker) to empty calcium stores; entry signal taken 4 min after adding it. Measurement: 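Duplicate raw fluo-4 intensities per well from a plate reader, at rest and four minutes after thapsigargin emptied calcium stores; entry-to-rest ratio filled for only some wells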. Direction: calcium entry signal: higher = stronger calcium signal after store depletion; resting calcium signal: higher = higher resting calcium signal. Call rule: 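Hit if the duplicate-averaged plate z-score for entry over resting signal is under −3; wells with weak total dye signal (Fmax z < −2) or more than 5 off-targets removed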. Calls: active = strongly reduced calcium entry; inactive = no strong reduction.
In all, the deposit lists about 23,000 reagents; this is an unselected part of those that have a named target and a result. Of all reagents, 75 (0.33%) were called active. 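Raw plate signals without normalisation; calls rest on plate z-scores that were not deposited; ratio present for only 364 wells.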 Entries without a mark were called inactive. Names joined by + are all predicted targets of the reagent. The record does not give: the dose of the treatment.

| gene | amplicon | calcium entry signal, replicate 1 (fluorescence units) | calcium entry signal, replicate 2 (fluorescence units) | resting calcium signal, replicate 1 (fluorescence units) | resting calcium signal, replicate 2 (fluorescence units) |
| --- | --- | --- | --- | --- | --- |
| tal-1A + tal-2A + tal-AA + 1 more | DRSC12992 | 4.04e7 | 5.21e7 | 2.09e7 | 2.38e7 |
| Cdc14 | DRSC03013 | 3.99e7 | 3.79e7 | 1.55e7 | 2.02e7 |
| Rel | DRSC16819 | 3.26e7 | 3.91e7 | 1.33e7 | 1.58e7 |
| eIF4A | DRSC03526 | 1.58e7 | 1.79e7 | 9.78e6 | 1.10e7 |
| Vps33B | DRSC15722 | 2.28e7 | 2.34e7 | 1.01e7 | 1.10e7 |
| Tpr2 | DRSC03461 | 5.76e7 | – | 2.67e7 | – |
| CG13137 | DRSC02234 | 2.21e7 | 3.61e7 | 1.09e7 | 1.62e7 |
| His4r | DRSC16703 | 1.06e7 | 1.60e7 | 7.47e6 | 4.50e7 |
| Gdh | DRSC16679 | 3.18e7 | 2.69e7 | 1.72e7 | 1.28e7 |
| Nf-YA | DRSC10385 | 1.88e7 | 2.21e7 | 1.11e7 | 1.23e7 |
| Nf-YA | DRSC23126 | 4.17e7 | 3.40e7 | 2.14e7 | 1.59e7 |
| Trissin | DRSC14994 | 2.29e7 | 2.66e7 | 1.12e7 | 4.10e7 |
| Tsen34 + Trl | DRSC10014 | 4.32e7 | 6.20e7 | 2.10e7 | 2.46e7 |
| Adk1 | DRSC15514 | 1.94e7 | 2.23e7 | 1.02e7 | 1.19e7 |
| CG14464 | DRSC07760 | 3.13e7 | 3.98e7 | 1.62e7 | 1.84e7 |
| rdog | DRSC14431 | 2.64e7 | 3.29e7 | 1.23e7 | 1.65e7 |
| CG5282 | DRSC11775 | 4.52e7 | 4.81e7 | 2.07e7 | 3.33e7 |
| lectin-21Cb | DRSC00355 | 2.86e7 | 3.81e7 | 1.40e7 | 1.72e7 |
| eag | DRSC19067 | 3.79e7 | 3.55e7 | 1.83e7 | 1.52e7 |
| eag | DRSC20328 | 4.32e7 | 3.52e7 | 2.31e7 | 1.64e7 |
| trem | DRSC15575 | 2.18e7 | 2.86e7 | 3.08e7 | 1.34e7 |
| pst | DRSC11003 | 4.57e7 | 4.05e7 | 2.67e7 | 1.61e7 |
| CG8141 | DRSC16387 | 2.46e7 | 4.68e7 | 1.22e7 | 6.25e7 |

Next part, starting with the last 3 of the part before.
| gene | amplicon | calcium entry signal, replicate 1 (fluorescence units) | calcium entry signal, replicate 2 (fluorescence units) | resting calcium signal, replicate 1 (fluorescence units) | resting calcium signal, replicate 2 (fluorescence units) |
| --- | --- | --- | --- | --- | --- |
| trem | DRSC15575 | 2.18e7 | 2.86e7 | 3.08e7 | 1.34e7 |
| pst | DRSC11003 | 4.57e7 | 4.05e7 | 2.67e7 | 1.61e7 |
| CG8141 | DRSC16387 | 2.46e7 | 4.68e7 | 1.22e7 | 6.25e7 |
| Cyp6a14 | DRSC07376 | 4.57e7 | 4.28e7 | 2.12e7 | 1.87e7 |
| snama | DRSC04049 | 3.65e7 | – | 1.75e7 | – |
| Cpr65Az | DRSC09882 | 2.94e7 | 4.05e7 | 1.29e7 | 1.55e7 |
| Cpr65Az | DRSC22057 | 4.00e7 | 2.81e7 | 2.42e7 | 1.59e7 |
| Andorra | DRSC19475 | 4.16e7 | 3.79e7 | 2.14e7 | 1.72e7 |
| flw | DRSC17992 | 2.33e7 | 3.21e7 | 1.17e7 | 1.58e7 |
| flw | DRSC18774 | 1.92e7 | 2.25e7 | 1.05e7 | 1.11e7 |
| CG30096 | DRSC21744 | 3.90e7 | 4.26e7 | 2.09e7 | 1.82e7 |
| ocm | DRSC04360 | 2.30e7 | – | 1.25e7 | – |
| RpS25 | DRSC16837 | 1.58e7 | 2.20e7 | 1.08e7 | 1.42e7 |
| ZnT49B | DRSC07225 | 3.60e7 | 4.13e7 | 1.94e7 | 1.80e7 |
| CG42580 | DRSC20397 | 3.15e7 | 4.58e7 | 1.73e7 | 2.03e7 |
| Osi16 | DRSC12135 | 3.31e7 | 1.83e7 | 1.56e7 | 9.03e6 |
| Osi16 | DRSC21323 | 2.35e7 | 2.92e7 | 1.18e7 | 1.29e7 |
| CG1299 | DRSC08300 | 3.98e7 | 4.01e7 | 2.06e7 | 1.81e7 |
| CG13392 | DRSC02262 | 2.97e7 | 4.68e7 | 1.54e7 | 1.83e7 |
| Calr | DRSC16614 | 3.35e7 | 3.07e7 | 1.83e7 | 1.74e7 |
